Assay [1] deals with Pseudomonas aeruginosa. Kind of assay: Antibacterial activity against Pseudomonas aeruginosa MTCC441 at 5 ug/ml. The conditions noted are these: dose 5.0 µg/ml. The assay is classed as functional.
Assay [2] concerns Escherichia coli. Kind of assay: Antibacterial activity against Escherichia coli MTCC442 at 5 ug/ml. The conditions noted are these: dose 5.0 µg/ml. It counts as functional.

For GENTAMICIN, the values for the inhibition zone (IZ) in assay [1] and in assay [2] were 17.3 mm and 19.9 mm, respectively.

Values taken from ChEMBL document CHEMBL4834450, “Design, synthesis and antimicrobial activity of novel 2-aminothiophene containing cyclic and heterocyclic moieties” (2021).
